These are yes or no findings as the source states them, for the method shown. For some of these results: Binding seen in cells or lysates may run through a third protein. Some entries that bind do so weakly or less than the wild type. Sequences can lack the tags named with a protein.
T1: GST-Mitch (Drosophila (D. melanogaster)) (UniProt Q9V3V7)
T1 sequence: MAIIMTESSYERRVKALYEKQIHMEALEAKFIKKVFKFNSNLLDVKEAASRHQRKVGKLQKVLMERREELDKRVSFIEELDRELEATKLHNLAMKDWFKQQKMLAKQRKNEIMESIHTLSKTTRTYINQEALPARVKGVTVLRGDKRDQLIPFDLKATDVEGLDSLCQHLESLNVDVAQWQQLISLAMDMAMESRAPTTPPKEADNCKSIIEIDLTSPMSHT

T2: GST-HOAP (Drosophila (D. melanogaster)) (UniProt Q95RV2)
T2 sequence: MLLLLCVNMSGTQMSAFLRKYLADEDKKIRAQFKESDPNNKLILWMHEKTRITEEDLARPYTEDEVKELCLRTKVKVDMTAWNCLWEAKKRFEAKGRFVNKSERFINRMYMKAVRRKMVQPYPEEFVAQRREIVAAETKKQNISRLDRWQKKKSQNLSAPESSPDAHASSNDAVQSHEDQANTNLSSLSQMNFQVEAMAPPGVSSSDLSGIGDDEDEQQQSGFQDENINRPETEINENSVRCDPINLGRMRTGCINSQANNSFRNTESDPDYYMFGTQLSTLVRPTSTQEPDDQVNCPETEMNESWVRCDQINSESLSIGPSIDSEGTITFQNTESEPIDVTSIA

T3: GST-Ver (Drosophila (D. melanogaster)) (UniProt Q9VTZ2)
T3 sequence: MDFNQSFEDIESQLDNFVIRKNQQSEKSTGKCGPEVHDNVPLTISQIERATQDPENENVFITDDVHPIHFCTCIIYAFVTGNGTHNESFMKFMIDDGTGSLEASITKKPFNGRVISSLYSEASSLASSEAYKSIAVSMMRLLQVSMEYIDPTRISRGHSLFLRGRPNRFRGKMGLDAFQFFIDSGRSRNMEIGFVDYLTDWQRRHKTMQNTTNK


What was measured:
[1] = target: T1, GST-Mitch (Drosophila (D. melanogaster)); assay: pull-down; lysates from S2 cells expressing HA-tagged SFs incubated at 4°C for 2 hr with GST-fusion proteins or GST alone; Western blotting with anti-HA; only the target purified
[2] = target: T2, GST-HOAP (Drosophila (D. melanogaster)); assay: pull-down; bacterially expressed purified proteins; GST-Mitch (60 nM), GST-Nuf2 (50 nM), GST-Ndc80 (40 nM) or GST (200 nM) on glutathione beads incubated at 4°C for 2 hr with 6His-Sf3A2 (20 nM) or 6His-Prp31 (20 nM) in NETN buffer (20 mM Tris-HCl, pH 8, 100 mM NaCl, 1 mM EDTA, 0.5% NP-40); both purified
[3] = target: T3, GST-Ver (Drosophila (D. melanogaster)); assay: as above
[4] = target: T1, GST-Mitch (Drosophila (D. melanogaster)); assay: as above

Binder | binding [1] | binding [2] | binding [3] | binding [4]
3HA-Prp31 (protein, UniProt Q9VUM1 1-501) MSLADELLADLEEDNDNELEEEDSEMASAEDESLLAEKLAKPAPNLMDVDVTVQSVRELCKLRDSERLKNTLQQIEHYASRQRTAAEMLGSVESDPEYCLIVDANAIAVDIDNEISIVHKFTKEKYQKRFPELDSLIVGEIEYLLAVKELGNDLDQVKNNEKLQAILTQATIMIVSVTASTTQGTMLTPAEKAKIDEACEMAIELNNFKSKIYEYVESRMTFIAPNLSMIVGASTAAKLLGIAGGLSKLSKMPACNVQVLGAQKKTLSGFSQTQMLPHTGYVYYSQIVQDTAPDLRRKAARLVAAKSVLAARVDACHESVHGEIGLRFKEDVEKKLDKLQEPPPVKFIKPLPKPIEGSKKKRGGKRVRKMKERYALTEFRKQANRMNFGDIEEDAYQGDLGYSRGTIGKTGTGRIRLPQVDEKTKVRISKTLHKNLQKQQVYGGNTTVKRQISGTASSVAFTPLQGLEIVNPQAAERSQTEANAKYFSNTSGFMSVGQRTT | binds | – | – | –
6His-Prp31 (protein, UniProt Q9VUM1 1-501) MSLADELLADLEEDNDNELEEEDSEMASAEDESLLAEKLAKPAPNLMDVDVTVQSVRELCKLRDSERLKNTLQQIEHYASRQRTAAEMLGSVESDPEYCLIVDANAIAVDIDNEISIVHKFTKEKYQKRFPELDSLIVGEIEYLLAVKELGNDLDQVKNNEKLQAILTQATIMIVSVTASTTQGTMLTPAEKAKIDEACEMAIELNNFKSKIYEYVESRMTFIAPNLSMIVGASTAAKLLGIAGGLSKLSKMPACNVQVLGAQKKTLSGFSQTQMLPHTGYVYYSQIVQDTAPDLRRKAARLVAAKSVLAARVDACHESVHGEIGLRFKEDVEKKLDKLQEPPPVKFIKPLPKPIEGSKKKRGGKRVRKMKERYALTEFRKQANRMNFGDIEEDAYQGDLGYSRGTIGKTGTGRIRLPQVDEKTKVRISKTLHKNLQKQQVYGGNTTVKRQISGTASSVAFTPLQGLEIVNPQAAERSQTEANAKYFSNTSGFMSVGQRTT | – | no binding | no binding | binds

From article PMC6287947
